Measured values from publication PMC4812327.
Results are given in words; binding and its absence hold for the method and conditions named. In cells and extracts the contact can be indirect. Some entries that bind do so weakly or less than the wild type. For part of these data: Where a sequence is shown, tags or fusion partners need not be part of it. One block for each binder: values may come before it.

Experiments:
[1] = target: T1, Mgr (Drosophila) (UniProt Q9VGP6); assay: co-IP; co-immunoprecipitation assays of Fig. S10; source of proteins and antibodies not told in the text shown
T1 sequence: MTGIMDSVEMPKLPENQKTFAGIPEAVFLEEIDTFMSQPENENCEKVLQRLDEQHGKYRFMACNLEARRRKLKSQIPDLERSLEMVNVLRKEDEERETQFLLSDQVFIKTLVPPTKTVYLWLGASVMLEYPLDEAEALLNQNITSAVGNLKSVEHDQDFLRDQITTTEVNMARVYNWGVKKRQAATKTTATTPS

[2] = target: T2, Flag-tagged Pfdn2 (Drosophila) (UniProt Q9VTE5); assay: co-IP; S2 cells co-expressing Flag- and Myc-tagged proteins, harvested 48 h after transfection; lysate immunoprecipitated with mouse anti-Flag or anti-Myc overnight at 4 °C, Protein A/G beads, western blot
T2 sequence: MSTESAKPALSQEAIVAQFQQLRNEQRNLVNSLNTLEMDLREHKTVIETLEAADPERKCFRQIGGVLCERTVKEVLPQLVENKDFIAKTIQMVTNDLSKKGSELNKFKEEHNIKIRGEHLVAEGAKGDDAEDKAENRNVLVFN

[3] = target: T3, Myc-tagged Mgr (Drosophila) (UniProt Q9VGP6); assay: as above
T3 sequence: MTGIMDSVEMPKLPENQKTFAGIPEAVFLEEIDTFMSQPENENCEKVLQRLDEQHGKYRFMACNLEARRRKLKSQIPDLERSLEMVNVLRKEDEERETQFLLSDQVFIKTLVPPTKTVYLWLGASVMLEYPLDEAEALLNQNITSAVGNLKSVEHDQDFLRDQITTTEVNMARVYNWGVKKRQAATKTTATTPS

- binding [1]: no binding
B1: Partner of Inscuteable (Pins) (protein, UniProt Q9VB22 1-658)
chain: MSSLSASAENVSSLGLGSGGGGTTSHDGNSQQGSGSDGGSSMCLELALEGERLCKAGDCRAGVAFFQAAIQAGTEDLRTLSAIYSQLGNAYFYLGDYNKAMQYHKHDLTLAKSMNDRLGEAKSSGNLGNTLKVMGRFDEAAICCERHLTLARQLGDRLSEGRALYNLGNVYHAKGKHLGQRNPGKFGDDVKEALTRAVEFYQENLKLMRDLGDRGAQGRACGNLGNTYYLLGDFQAAIEHHQERLRIAREFGDRAAERRANSNLGNSHIFLGQFEDAAEHYKRTLALAVELGEREVEAQSCYSLGNTYTLLHEFNTAIEYHNRHLAIAQELGDRIGEARACWSLGNAHSAIGGHERALKYAEQHLQLAKELHDPVGESTARVNISDLRKLLGMPDSEPSPTEEEARSTASDHSASGNQSDGSENSQGRMVRVRRQSMEQLDLIKITPDGKRMQEEKLRAQATRKAKDDDFFEMLSRSQSKRMDDQRCSIKVNPAGAPAVATGATRKPLVQQNSLFVDPTNLPGLKSPSSANPSAIGHGPLARSATTTQQPDDDFLDMLMRCQGSRLEEQRSELPRPNVTMDAEAEAPPRSVPEAAVPGAPRGQTGRGATVPDEDFFSLIMKVQSGRMEDQRASIPFRNANNNNNSRSNNNGSAGGAGK

- binding [2]: binds
B2: Myc-tagged Pfdn5 (protein, UniProt Q9VCZ8 1-168)
chain: MAATPSAPAKSEMIDLTKLSPEQLIQIKQEFEQEITNVQDSLSTLHGCQAKYAGSKEALGTFQPNWENRQILVPLTSSMYVPGRVKDLNRFVIDIGTGYYIEKDLEGSKDYFKRRVEYVQEQIEKIEKIHLQKTRFYNSVMSVLEMKQAAAAKLQSQQQSQPAVTQSS

- binding [3]: binds
B3: Flag-tagged Pfdn2 (protein, UniProt Q9VTE5 1-143)
chain: MSTESAKPALSQEAIVAQFQQLRNEQRNLVNSLNTLEMDLREHKTVIETLEAADPERKCFRQIGGVLCERTVKEVLPQLVENKDFIAKTIQMVTNDLSKKGSELNKFKEEHNIKIRGEHLVAEGAKGDDAEDKAENRNVLVFN
